Assay results: US7011817B2, “Hydrophilic cyanine dyes” (Mallinckrodt Inc., priority 2000, dated 2006)
Part of at least one peptide drawing is inferred or uncertain, most often the ends.

System: Rat pancreatic acinar carcinoma expressing the SST-2 receptor (CA20948)
Assay: In vivo fluorescence imaging of pancreatic acinar carcinoma CA20948 in rats
From the text: A non-invasive in vivo fluorescence imaging apparatus was employed to assess the efficacy of contrast agents developed for tumor detection in animal models. A LaserMax Inc. laser diode of nominal wavelength 780 nm and nominal power of 40 mW was used. The detector was a Princeton Instruments model RTE/CCD-1317-K/2 CCD camera with a Rodenstock 10 mm F2 lens (stock #542.032.002.20) attached. An 830 nm interference […] (CVI Laser Corp., part # F10-830-4-2) was mounted in front of the CCD input lens such that only emitted fluorescent light from the contrast agent was imaged. Typically, an image of the animal was taken pre-injection of contrast agent. This image was subsequently subtracted (pixel by pixel) from the post injection images. However, the background subtraction was […] done once the animal had been removed from the sample area and returned at a later time for images taken several hours post injection.
The imaging apparatus and the procedure used are described in Example 12. Rat pancreatic acinar carcinoma expressing the SST-2 receptor (CA20948) was induced by solid implant technique in the left flank area, and palpable masses were detected nine days post implant. The images obtained at 2 and 30 minutes post injection are shown in FIGS. 7E-F. FIGS. 7E-F are images of a rat with an induced pancreatic acinar carcinoma (CA20948) expressing the SST-2 receptor imaged at two minutes (FIG. 7E) and 30 minutes (FIG. 7F) post injection.
The imaging apparatus and the procedure used are described in Example 12, except that each animal received 500 μl of a 1.0 mg/mL solution of Cytate 1 solution of 25% dimethylsulfoxide in water.
Rat pancreatic acinar carcinoma expressing the SST-2 receptor (CA20948) were induced by solid implant technique in the left flank area, and palpable masses were detected 24 days post implant. Images were obtained at various times post injection.
Cytate 1 was evaluated in the CA20948 Lewis rat model. […] At 27 hours post injection, the animal was again imaged (FIG. 9B).

[1] = CA20948 tumor, 500 μl of 1.0 mg/mL in 25% DMSO in water

C[C@@H](O)[C@H](NC(=O)[C@@H]1CSSC[C@H](NC(=O)[C@@H](Cc2ccccc2)NC(=O)CC[N+]2=C(C=CC=CC=CC=C3N(CCC(=O)O)c4ccc5ccccc5c4C3(C)C)C(C)(C)c3c2ccc2ccccc32)C(=O)N[C@@H](Cc2ccc(O)cc2)C(=O)N[C@H](Cc2c[nH]c3ccccc23)C(=O)N[C@@H](CCCCN)C(=O)N[C@@H]([C@@H](C)O)C(=O)N1)C(=O)O [Cytate 1, monoOctreotate-Bisethylcarboxymethylindocyanine dye]
localization of dye in the tumor (45 minutes post injection, CA20948 Lewis rat model): localization of this dye was observed in the tumor
dye fluorescence in the tumor at 45 minutes (45 minutes post injection, CA20948 tumor): still intense
tumor visualization (27 hours post injection, CA20948 Lewis rat model): easily observed
duration of dye fluorescence in the tumor (CA20948 tumor): remained intense in the tumor for several hours post-injection
time of maximal uptake into the tumor [1]: about five
uptake into the tumor (first seen) [1]: seen at two minutes
